Laboratory results taken from patent US20100190733A1, “Methods of Treating Muscular Dystrophies” (Primus Pharmaceuticals, Inc., priority 2009, published 2010).
At least one structure is not confirmed: it was looked up by name or label, or the drawing left a doubt.

Tested on: TNF-α
Experiment: Western blot of muscle, TNF-α
Type: in vivo, mice

## C[C@H]1C[C@@H]2[C@H]([C@@H](O)C[C@@]3(C)[C@H]2CC[C@]3(O)C(=O)CO)[C@@]2(C)C=CC(=O)C=C12 [methylprednisolone]
WT animals muscle
  TNF-α expression: very low level of expression
Mdx mice muscle, vs vehicle-treated mdx mice
  TNF-α expression: significantly reduce
